Results on one substance are retold here after article doi:10.1101/2022.12.19.521009.

The assay has as its target UmSee1-TurboID-3HA (Ustilago maydis). Description: affinity purification with mass spectrometry.

Results are given in words; binding and its absence hold for the method and conditions named. Binding seen in cells or lysates may run through a third protein. Here binding means that the protein was enriched with, or labelled near, the bait; the list need not be complete.

Consider “ZmSIP2 (Zea mays See1-interacting protein 2) (from UniProt A0A1D6G9Q0)”, for which the binding result is on record as “binds”.
